The other results are listed elsewhere or left out.
Key:
Assay in all cases: glycan array binding signal (z-score within array); higher = stronger binding
Conditions in all cases: glycan notation: IUPAC condensed, linker removed
GalNAc(b1-3)GalNAc = target: GalNAc(b1-3)GalNAc
Procedure, shortened: (§1)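 The Consortium for Functional Glycomics database supplied 3228 glycan arrays, of which those lacking an available protein sequence were dropped. The binding signal, a within-array Z-score, was averaged across arrays of the same protein sequence and across linkers. Negative scores can be read as non-binding.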

GalNAc(b1-4)GlcNAc = target: GalNAc(b1-4)GlcNAc
Procedure, shortened: as §1

Glc(a1-4)Glc = target: Glc(a1-4)Glc
Procedure, shortened: as §1

Glc(a1-6)Glc(a1-6)Glc = target: Glc(a1-6)Glc(a1-6)Glc
Procedure, shortened: as §1

Glc(b1-4)Glc = target: Glc(b1-4)Glc
Procedure, shortened: as §1

Glc(b1-6)Glc = target: Glc(b1-6)Glc
Procedure, shortened: as §1

GlcA(b1-3)Gal = target: GlcA(b1-3)Gal
Procedure, shortened: as §1

GlcA(b1-3)GlcNAc = target: GlcA(b1-3)GlcNAc
Procedure, shortened: as §1

GlcA(b1-6)Gal = target: GlcA(b1-6)Gal
Procedure, shortened: as §1

[1] = target: GlcNAc(a1-3)Gal(b1-4)GlcNAc
Procedure, shortened: as §1

[2] = target: GlcNAc(a1-6)Gal(b1-4)GlcNAc
Procedure, shortened: as §1

[3] = target: GlcNAc(b1-2)Gal(b1-3)GalNAc
Procedure, shortened: as §1

[4] = target: GlcNAc(b1-2)Man(a1-3)[GlcNAc(b1-2)Man(a1-6)]Man(b1-4)GlcNAc(b1-4)GlcNAc
Procedure, shortened: as §1

GlcNAc(b1-3)Gal = target: GlcNAc(b1-3)Gal
Procedure, shortened: as §1

[5] = target: GlcNAc(b1-3)Gal(b1-3)GalNAc
Procedure, shortened: as §1

GlcNAc(b1-3)Gal(b1-4)Glc = target: GlcNAc(b1-3)Gal(b1-4)Glc
Procedure, shortened: as §1

[6] = target: GlcNAc(b1-3)Gal(b1-4)GlcNAc
Procedure, shortened: as §1

[7] = target: GlcNAc(b1-3)Gal(b1-4)GlcNAc(b1-3)Gal(b1-4)GlcNAc
Procedure, shortened: as §1

GlcNAc(b1-3)GalNAc = target: GlcNAc(b1-3)GalNAc
Procedure, shortened: as §1

GlcNAc(b1-3)Man = target: GlcNAc(b1-3)Man
Procedure, shortened: as §1

[8] = target: GlcNAc(b1-3)[GlcNAc(b1-4)][GlcNAc(b1-6)]GlcNAc
Procedure, shortened: as §1

[9] = target: GlcNAc(b1-3)[GlcNAc(b1-6)]Gal(b1-4)GlcNAc
Procedure, shortened: as §1

[10] = target: GlcNAc(b1-3)[GlcNAc(b1-6)]GalNAc
Procedure, shortened: as §1

[11] = target: GlcNAc(b1-4)Gal(b1-4)GlcNAc
Procedure, shortened: as §1

GlcNAc(b1-4)GlcNAc = target: GlcNAc(b1-4)GlcNAc
Procedure, shortened: as §1

[12] = target: GlcNAc(b1-4)GlcNAc(b1-4)GlcNAc
Procedure, shortened: as §1

[13] = target: GlcNAc(b1-4)GlcNAc(b1-4)GlcNAc(b1-4)GlcNAc(b1-4)GlcNAc
Procedure, shortened: as §1

[14] = target: GlcNAc(b1-4)GlcNAc(b1-4)GlcNAc(b1-4)GlcNAc(b1-4)GlcNAc(b1-4)GlcNAc
Procedure, shortened: as §1

[15] = target: GlcNAc(b1-4)[GlcNAc(b1-6)]GalNAc
Procedure, shortened: as §1

[16] = target: GlcNAc(b1-6)Gal(b1-4)GlcNAc
Procedure, shortened: as §1

GlcNAc(b1-6)GalNAc = target: GlcNAc(b1-6)GalNAc
Procedure, shortened: as §1

GlcNAc3Prop(b1-4)GlcNAc = target: GlcNAc3Prop(b1-4)GlcNAc
Procedure, shortened: as §1

Kdn(a2-3)Gal(b1-3)GlcNAc = target: Kdn(a2-3)Gal(b1-3)GlcNAc
Procedure, shortened: as §1

Kdn(a2-3)Gal(b1-4)GlcNAc = target: Kdn(a2-3)Gal(b1-4)GlcNAc
Procedure, shortened: as §1

[17] = target: Man(a1-2)Man(a1-2)Man(a1-3)Man
Procedure, shortened: as §1

[18] = target: Man(a1-2)Man(a1-2)Man(a1-6)[Man(a1-3)]Man
Procedure, shortened: as §1

Man(a1-2)Man(a1-3)Man = target: Man(a1-2)Man(a1-3)Man
Procedure, shortened: as §1

[19] = target: Man(a1-2)Man(a1-3)[Man(a1-2)Man(a1-6)]Man
Procedure, shortened: as §1

[20] = target: Man(a1-2)Man(a1-3)[Man(a1-2)Man(a1-6)]Man(a1-6)[Man(a1-2)Man(a1-2)Man(a1-3)]Man
Procedure, shortened: as §1

[21] = target: Man(a1-2)Man(a1-3)[Man(a1-2)Man(a1-6)]Man(a1-6)[Man(a1-2)Man(a1-2)Man(a1-3)]Man(b1-4)GlcNAc(b1-4)GlcNAc
Procedure, shortened: as §1

[22] = target: Man(a1-2)Man(a1-3)[Man(a1-6)]Man(a1-6)[Man(a1-2)Man(a1-3)]Man(b1-4)GlcNAc(b1-4)GlcNAc
Procedure, shortened: as §1

[23] = target: Man(a1-2)Man(a1-6)[Man(a1-3)]Man(a1-6)[Man(a1-2)Man(a1-2)Man(a1-3)]Man
Procedure, shortened: as §1

[24] = target: Man(a1-2)Man(a1-6)[Man(a1-3)]Man(a1-6)[Man(a1-2)Man(a1-2)Man(a1-3)]Man(b1-4)GlcNAc(b1-4)GlcNAc
Procedure, shortened: as §1

Man(a1-3)[Man(a1-6)]Man = target: Man(a1-3)[Man(a1-6)]Man
Procedure, shortened: as §1

[25] = target: Man(a1-3)[Man(a1-6)]Man(a1-6)[Man(a1-2)Man(a1-3)]Man(b1-4)GlcNAc(b1-4)GlcNAc
Procedure, shortened: as §1

[26] = target: Man(a1-3)[Man(a1-6)]Man(a1-6)[Man(a1-3)]Man
Procedure, shortened: as §1

[27] = target: Man(a1-3)[Man(a1-6)]Man(a1-6)[Man(a1-3)]Man(b1-4)GlcNAc(b1-4)GlcNAc
Procedure, shortened: as §1

[28] = target: Man(a1-3)[Man(a1-6)]Man(b1-4)GlcNAc(b1-4)GlcNAc
Procedure, shortened: as §1

Man(a1-6)Man = target: Man(a1-6)Man
Procedure, shortened: as §1

Man(b1-4)GlcNAc = target: Man(b1-4)GlcNAc
Procedure, shortened: as §1

Neu5Ac(a2-3)Gal = target: Neu5Ac(a2-3)Gal
Procedure, shortened: as §1

[29] = target: Neu5Ac(a2-3)Gal(b1-3)GalNAc
Procedure, shortened: as §1

[30] = target: Neu5Ac(a2-3)Gal(b1-3)GalNAc(b1-3)Gal(a1-4)Gal(b1-4)Glc
Procedure, shortened: as §1

[31] = target: Neu5Ac(a2-3)Gal(b1-3)GalNAc(b1-3)Gal(b1-4)GlcNAc
Procedure, shortened: as §1

[32] = target: Neu5Ac(a2-3)Gal(b1-3)GalNAc(b1-4)[Neu5Ac(a2-3)]Gal(b1-4)Glc
Procedure, shortened: as §1

[33] = target: Neu5Ac(a2-3)Gal(b1-3)GalNAc6S
Procedure, shortened: as §1

[34] = target: Neu5Ac(a2-3)Gal(b1-3)GlcNAc
Procedure, shortened: as §1

[35] = target: Neu5Ac(a2-3)Gal(b1-3)GlcNAc(b1-3)Gal(b1-3)GlcNAc
Procedure, shortened: as §1

[36] = target: Neu5Ac(a2-3)Gal(b1-3)GlcNAc6S
Procedure, shortened: as §1

B1: Mcg Light Chain Dimer (Homo sapiens), Q6PIK1 (protein)
chain: MAGFPLLLTLLTHCAGSWGQSLLTQPPSVSGTPGQRVTISCSGSSSNIGINYVYWYQQIPGTAPKLLISTNDQRPSGVPDRFSGSKSGTSASLAIGGLRSEDEAHYYCAAWDDSMSGPGYAFGTGTKVTVLRQPKANPTVTLFPPSSEELQANKATLVCLISDFYPGAVTVAWKADGSPVKAGVETTKPSKQSNNKYAASSYLSLTPEQWKSHRSYSCQVTHEGSTVEKTVAPTECS
glycan array binding signal (z-score) (GalNAc(b1-3)GalNAc): -1.1
glycan array binding signal (z-score) (GalNAc(b1-4)GlcNAc): -0.53
glycan array binding signal (z-score) (Glc(a1-4)Glc): -0.366
glycan array binding signal (z-score) (Glc(a1-6)Glc(a1-6)Glc): -0.665
glycan array binding signal (z-score) (Glc(b1-4)Glc): 0.064
glycan array binding signal (z-score) (Glc(b1-6)Glc): -1.03
glycan array binding signal (z-score) (GlcA(b1-3)Gal): -0.755
glycan array binding signal (z-score) (GlcA(b1-3)GlcNAc): 0.624
glycan array binding signal (z-score) (GlcA(b1-6)Gal): 0.71
glycan array binding signal (z-score) [1]: 0.209
glycan array binding signal (z-score) [2]: -0.811
glycan array binding signal (z-score) [3]: 0.244
glycan array binding signal (z-score) [4]: -0.111
glycan array binding signal (z-score) (GlcNAc(b1-3)Gal): 0.164
glycan array binding signal (z-score) [5]: -1.09
glycan array binding signal (z-score) (GlcNAc(b1-3)Gal(b1-4)Glc): -0.966
glycan array binding signal (z-score) [6]: -0.336
glycan array binding signal (z-score) [7]: 0.597
glycan array binding signal (z-score) (GlcNAc(b1-3)GalNAc): -0.992
glycan array binding signal (z-score) (GlcNAc(b1-3)Man): -0.948
glycan array binding signal (z-score) [8]: -0.957
glycan array binding signal (z-score) [9]: 0.137
glycan array binding signal (z-score) [10]: -0.93
glycan array binding signal (z-score) [11]: 0.335
glycan array binding signal (z-score) (GlcNAc(b1-4)GlcNAc): -0.301
glycan array binding signal (z-score) [12]: -0.143
glycan array binding signal (z-score) [13]: 0.521
glycan array binding signal (z-score) [14]: -0.677
glycan array binding signal (z-score) [15]: -0.665
glycan array binding signal (z-score) [16]: -0.364
glycan array binding signal (z-score) (GlcNAc(b1-6)GalNAc): -1.13
glycan array binding signal (z-score) (GlcNAc3Prop(b1-4)GlcNAc): 0.648
glycan array binding signal (z-score) (Kdn(a2-3)Gal(b1-3)GlcNAc): -0.743
glycan array binding signal (z-score) (Kdn(a2-3)Gal(b1-4)GlcNAc): 0.717
glycan array binding signal (z-score) [17]: -0.697
glycan array binding signal (z-score) [18]: 0.605
glycan array binding signal (z-score) (Man(a1-2)Man(a1-3)Man): -0.709
glycan array binding signal (z-score) [19]: 0.598
glycan array binding signal (z-score) [20]: -0.647
glycan array binding signal (z-score) [21]: 0.417
glycan array binding signal (z-score) [22]: 0.7
glycan array binding signal (z-score) [23]: 0.467
glycan array binding signal (z-score) [24]: -0.89
glycan array binding signal (z-score) (Man(a1-3)[Man(a1-6)]Man): -1.04
glycan array binding signal (z-score) [25]: -0.61
glycan array binding signal (z-score) [26]: -0.817
glycan array binding signal (z-score) [27]: 1.08
glycan array binding signal (z-score) [28]: -0.305
glycan array binding signal (z-score) (Man(a1-6)Man): 0.122
glycan array binding signal (z-score) (Man(b1-4)GlcNAc): -0.66
glycan array binding signal (z-score) (Neu5Ac(a2-3)Gal): 1.01
glycan array binding signal (z-score) [29]: 0.759
glycan array binding signal (z-score) [30]: -0.867
glycan array binding signal (z-score) [31]: 0.829
glycan array binding signal (z-score) [32]: 1.43
glycan array binding signal (z-score) [33]: 2.88
glycan array binding signal (z-score) [34]: -0.09
glycan array binding signal (z-score) [35]: -0.889
glycan array binding signal (z-score) [36]: 1.73

Source: the supplement of paper PMC8728848
